The results in this text go back to the supplement of paper PMC10849652.

Chains of the proteins cited; added tags and fusions are not shown. Lines headed by an entry give the natural chain unless they say otherwise; changes in a name come on top.
UniProt Q9P1Z2: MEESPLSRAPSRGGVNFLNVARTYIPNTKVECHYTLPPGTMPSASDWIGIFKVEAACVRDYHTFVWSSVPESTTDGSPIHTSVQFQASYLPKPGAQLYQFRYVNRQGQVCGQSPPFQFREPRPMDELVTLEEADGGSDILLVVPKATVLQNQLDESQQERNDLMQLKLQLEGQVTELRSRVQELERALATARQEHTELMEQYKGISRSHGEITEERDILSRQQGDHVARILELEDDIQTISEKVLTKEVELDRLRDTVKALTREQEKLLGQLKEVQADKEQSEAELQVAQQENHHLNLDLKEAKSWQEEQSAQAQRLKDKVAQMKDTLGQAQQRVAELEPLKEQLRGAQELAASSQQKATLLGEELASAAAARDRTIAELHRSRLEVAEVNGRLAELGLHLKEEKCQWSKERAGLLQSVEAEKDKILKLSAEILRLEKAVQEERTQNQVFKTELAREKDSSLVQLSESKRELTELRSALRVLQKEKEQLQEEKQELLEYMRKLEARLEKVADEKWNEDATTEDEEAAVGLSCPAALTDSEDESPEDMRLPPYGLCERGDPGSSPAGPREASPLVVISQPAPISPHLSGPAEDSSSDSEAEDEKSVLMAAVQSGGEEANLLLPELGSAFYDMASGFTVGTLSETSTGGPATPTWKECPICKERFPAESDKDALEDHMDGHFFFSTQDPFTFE
UniProt Q96EU7: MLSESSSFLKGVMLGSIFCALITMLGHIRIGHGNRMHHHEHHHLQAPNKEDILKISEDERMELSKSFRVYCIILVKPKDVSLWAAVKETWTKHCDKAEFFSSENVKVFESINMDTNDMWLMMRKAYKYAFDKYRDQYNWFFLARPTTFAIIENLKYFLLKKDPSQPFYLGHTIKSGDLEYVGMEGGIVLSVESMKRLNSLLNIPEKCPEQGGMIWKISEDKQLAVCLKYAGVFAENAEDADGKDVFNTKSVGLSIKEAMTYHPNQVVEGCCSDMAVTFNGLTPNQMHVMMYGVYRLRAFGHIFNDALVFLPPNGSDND
UniProt Q8IXQ3: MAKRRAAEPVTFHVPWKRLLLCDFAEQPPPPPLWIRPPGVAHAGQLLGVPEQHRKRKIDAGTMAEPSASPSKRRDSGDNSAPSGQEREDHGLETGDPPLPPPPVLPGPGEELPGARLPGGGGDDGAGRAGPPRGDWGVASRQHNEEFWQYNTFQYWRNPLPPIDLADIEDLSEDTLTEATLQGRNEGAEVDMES
UniProt Q14444, whole entry, looked up: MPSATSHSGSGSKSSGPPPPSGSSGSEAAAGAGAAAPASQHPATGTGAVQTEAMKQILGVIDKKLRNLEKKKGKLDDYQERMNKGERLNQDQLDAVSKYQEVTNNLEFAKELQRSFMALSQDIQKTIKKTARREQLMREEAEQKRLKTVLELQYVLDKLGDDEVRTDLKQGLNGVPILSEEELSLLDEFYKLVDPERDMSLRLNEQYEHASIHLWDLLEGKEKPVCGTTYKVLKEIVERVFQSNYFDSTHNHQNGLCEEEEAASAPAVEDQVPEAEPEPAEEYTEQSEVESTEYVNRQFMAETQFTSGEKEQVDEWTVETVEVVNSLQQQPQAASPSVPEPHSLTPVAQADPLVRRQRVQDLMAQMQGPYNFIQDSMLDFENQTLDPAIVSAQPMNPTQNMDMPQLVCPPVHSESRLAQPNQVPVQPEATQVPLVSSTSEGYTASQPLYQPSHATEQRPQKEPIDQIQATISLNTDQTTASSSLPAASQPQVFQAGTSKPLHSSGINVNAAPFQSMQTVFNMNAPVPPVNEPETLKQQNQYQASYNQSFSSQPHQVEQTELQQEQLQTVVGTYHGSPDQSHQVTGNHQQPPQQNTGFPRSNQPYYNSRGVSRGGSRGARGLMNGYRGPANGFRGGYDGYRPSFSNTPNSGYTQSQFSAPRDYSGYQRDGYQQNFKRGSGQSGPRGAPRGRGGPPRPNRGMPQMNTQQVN
UniProt Q9H3H3: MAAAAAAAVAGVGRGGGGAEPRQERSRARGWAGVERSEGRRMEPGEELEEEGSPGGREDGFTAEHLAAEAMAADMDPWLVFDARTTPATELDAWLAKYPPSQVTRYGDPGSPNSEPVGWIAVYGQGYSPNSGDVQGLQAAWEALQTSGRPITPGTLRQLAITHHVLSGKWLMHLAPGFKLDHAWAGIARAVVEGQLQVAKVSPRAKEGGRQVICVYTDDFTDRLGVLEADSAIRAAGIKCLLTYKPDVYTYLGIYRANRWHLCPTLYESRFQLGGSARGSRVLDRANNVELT
UniProt Q8WUQ7: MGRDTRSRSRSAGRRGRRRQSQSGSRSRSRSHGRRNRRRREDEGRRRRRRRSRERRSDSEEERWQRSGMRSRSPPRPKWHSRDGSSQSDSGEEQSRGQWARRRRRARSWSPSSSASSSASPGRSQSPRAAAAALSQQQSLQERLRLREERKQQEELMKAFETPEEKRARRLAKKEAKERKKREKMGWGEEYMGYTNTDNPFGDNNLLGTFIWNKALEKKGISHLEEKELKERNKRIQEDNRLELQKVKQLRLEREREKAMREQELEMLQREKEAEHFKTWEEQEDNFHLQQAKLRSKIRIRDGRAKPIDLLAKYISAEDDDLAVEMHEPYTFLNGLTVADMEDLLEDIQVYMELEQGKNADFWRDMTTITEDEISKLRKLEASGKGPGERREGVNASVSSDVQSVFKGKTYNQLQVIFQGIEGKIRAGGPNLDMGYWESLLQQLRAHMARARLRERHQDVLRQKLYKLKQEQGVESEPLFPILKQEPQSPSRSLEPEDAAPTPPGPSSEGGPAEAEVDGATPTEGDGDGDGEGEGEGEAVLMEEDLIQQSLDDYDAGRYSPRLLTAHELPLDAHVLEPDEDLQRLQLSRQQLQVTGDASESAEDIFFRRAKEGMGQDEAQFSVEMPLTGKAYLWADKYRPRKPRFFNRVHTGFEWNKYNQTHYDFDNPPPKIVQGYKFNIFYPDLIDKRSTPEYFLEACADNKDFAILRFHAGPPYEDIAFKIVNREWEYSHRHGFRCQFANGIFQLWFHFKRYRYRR
UniProt Q8TCD1: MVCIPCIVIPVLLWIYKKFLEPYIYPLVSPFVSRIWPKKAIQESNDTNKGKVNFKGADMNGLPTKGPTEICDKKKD
UniProt Q96LW7: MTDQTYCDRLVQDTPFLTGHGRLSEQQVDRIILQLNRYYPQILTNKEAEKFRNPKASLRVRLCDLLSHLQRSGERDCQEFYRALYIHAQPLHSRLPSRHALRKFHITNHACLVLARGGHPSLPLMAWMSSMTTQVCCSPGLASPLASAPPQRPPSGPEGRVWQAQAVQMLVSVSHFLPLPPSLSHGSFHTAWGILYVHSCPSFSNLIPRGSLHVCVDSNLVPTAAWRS
UniProt Q9Y297: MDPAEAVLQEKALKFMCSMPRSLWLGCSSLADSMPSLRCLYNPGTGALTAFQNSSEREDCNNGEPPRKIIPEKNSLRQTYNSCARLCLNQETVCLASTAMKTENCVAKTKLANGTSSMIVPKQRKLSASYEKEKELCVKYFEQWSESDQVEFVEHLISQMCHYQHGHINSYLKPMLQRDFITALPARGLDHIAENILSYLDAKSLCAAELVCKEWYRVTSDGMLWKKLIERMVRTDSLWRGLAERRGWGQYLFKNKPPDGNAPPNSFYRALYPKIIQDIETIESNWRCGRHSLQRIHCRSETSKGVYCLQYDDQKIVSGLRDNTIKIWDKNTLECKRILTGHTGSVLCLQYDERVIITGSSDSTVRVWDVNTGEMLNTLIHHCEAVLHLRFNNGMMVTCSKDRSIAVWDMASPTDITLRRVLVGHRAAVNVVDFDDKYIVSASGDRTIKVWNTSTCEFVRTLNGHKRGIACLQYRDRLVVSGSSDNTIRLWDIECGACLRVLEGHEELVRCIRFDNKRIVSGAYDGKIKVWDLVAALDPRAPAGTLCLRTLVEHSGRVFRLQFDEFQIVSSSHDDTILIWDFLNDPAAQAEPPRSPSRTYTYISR
UniProt Q9NZ63: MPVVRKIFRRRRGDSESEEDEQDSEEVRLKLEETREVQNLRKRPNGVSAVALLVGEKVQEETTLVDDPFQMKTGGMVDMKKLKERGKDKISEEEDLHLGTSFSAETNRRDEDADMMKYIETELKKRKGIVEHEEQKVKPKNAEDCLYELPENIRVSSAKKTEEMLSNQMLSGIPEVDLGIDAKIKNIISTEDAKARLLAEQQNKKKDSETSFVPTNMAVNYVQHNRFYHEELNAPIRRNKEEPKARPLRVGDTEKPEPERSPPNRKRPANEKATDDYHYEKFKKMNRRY
UniProt Q8N6N3: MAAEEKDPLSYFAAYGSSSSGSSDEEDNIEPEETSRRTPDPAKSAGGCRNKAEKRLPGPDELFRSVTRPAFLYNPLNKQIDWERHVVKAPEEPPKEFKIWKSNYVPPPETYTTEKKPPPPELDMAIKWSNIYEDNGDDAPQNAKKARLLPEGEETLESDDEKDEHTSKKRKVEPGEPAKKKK
UniProt P05937: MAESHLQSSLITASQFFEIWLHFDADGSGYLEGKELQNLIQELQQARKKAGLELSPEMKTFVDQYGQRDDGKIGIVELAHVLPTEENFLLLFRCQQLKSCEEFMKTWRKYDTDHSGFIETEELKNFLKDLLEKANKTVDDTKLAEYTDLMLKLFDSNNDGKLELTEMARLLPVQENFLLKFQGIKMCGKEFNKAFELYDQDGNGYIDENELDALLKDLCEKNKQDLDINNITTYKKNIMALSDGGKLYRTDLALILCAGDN
UniProt Q13901: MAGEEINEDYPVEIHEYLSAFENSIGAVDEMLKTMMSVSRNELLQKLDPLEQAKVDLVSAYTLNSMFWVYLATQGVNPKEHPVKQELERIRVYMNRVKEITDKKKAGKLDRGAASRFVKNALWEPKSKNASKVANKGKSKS
UniProt Q96B23: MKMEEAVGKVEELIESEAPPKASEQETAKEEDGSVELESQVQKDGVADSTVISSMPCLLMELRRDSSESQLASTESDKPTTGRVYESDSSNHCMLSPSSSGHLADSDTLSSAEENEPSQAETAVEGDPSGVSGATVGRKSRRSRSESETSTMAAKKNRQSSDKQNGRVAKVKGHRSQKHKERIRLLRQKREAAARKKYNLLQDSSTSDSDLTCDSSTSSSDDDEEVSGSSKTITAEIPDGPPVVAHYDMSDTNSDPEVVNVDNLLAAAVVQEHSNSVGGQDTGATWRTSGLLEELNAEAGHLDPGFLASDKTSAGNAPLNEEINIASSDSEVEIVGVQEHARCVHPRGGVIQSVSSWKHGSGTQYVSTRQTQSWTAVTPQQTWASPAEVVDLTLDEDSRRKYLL
UniProt Q9Y2G2: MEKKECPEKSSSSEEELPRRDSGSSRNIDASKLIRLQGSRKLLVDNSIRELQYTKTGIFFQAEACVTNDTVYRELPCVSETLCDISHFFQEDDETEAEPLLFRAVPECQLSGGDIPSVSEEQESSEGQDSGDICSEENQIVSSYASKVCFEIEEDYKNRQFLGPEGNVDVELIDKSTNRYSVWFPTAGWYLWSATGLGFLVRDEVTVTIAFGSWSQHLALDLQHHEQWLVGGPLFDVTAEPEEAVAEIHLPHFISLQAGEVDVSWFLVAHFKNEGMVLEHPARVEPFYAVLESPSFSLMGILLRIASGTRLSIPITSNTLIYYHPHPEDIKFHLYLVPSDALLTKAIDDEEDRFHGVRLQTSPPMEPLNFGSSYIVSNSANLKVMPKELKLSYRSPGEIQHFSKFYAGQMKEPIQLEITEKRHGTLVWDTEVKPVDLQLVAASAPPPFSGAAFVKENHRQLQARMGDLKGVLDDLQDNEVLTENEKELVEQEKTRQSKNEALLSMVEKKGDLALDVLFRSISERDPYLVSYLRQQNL
UniProt P10643, whole entry, looked up: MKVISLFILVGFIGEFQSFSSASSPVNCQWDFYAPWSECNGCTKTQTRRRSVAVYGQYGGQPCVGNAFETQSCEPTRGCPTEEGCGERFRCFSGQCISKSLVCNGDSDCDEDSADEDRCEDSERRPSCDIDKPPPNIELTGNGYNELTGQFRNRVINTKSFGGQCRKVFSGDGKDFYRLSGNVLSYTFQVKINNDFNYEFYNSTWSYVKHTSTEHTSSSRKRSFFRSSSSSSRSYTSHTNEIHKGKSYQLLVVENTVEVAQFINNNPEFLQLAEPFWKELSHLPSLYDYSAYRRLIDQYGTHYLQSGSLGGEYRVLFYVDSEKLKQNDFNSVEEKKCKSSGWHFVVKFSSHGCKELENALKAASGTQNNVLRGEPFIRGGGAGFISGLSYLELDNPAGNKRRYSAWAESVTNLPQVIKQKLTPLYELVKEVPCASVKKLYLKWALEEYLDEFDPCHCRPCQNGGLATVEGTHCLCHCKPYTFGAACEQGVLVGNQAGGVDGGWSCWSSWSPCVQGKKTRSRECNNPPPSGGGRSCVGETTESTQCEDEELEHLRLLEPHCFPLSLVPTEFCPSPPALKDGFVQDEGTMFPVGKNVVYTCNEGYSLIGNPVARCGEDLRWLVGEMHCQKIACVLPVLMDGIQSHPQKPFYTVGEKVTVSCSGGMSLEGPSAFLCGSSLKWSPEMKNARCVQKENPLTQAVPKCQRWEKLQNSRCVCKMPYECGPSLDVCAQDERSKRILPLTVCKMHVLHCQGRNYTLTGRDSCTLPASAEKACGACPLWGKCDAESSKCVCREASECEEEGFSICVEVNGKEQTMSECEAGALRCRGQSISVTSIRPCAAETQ

The list shows a part of the results.

Compound in one assay: O=C(O)c1ccc2c(c1)nc(Nc1cccc(Cl)c1)c1ccncc12 [silmitasertib]
Kind of assay: log2 fold change, soluble protein after heating vs DMSO (PISA); higher = thermal stabilisation; K562 cells, 10 uM, 30 min; active = over 0.2 and 3.5 SD of the protein, either way, in both replicates (recomputed). In a few lines:
(§1)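 Values are thermal stability changes relative to control samples and are taken from duplicates. They are stated as log2 fold changes. Before quantification by TMTpro 16plex LC-MS/MS with equalised channel sums, K562 cells at 2×10^6 cells/mL were treated with 10 μM compound for 30 min, heated in aliquots for 3 min across 48°C-58°C, pooled, extracted in PBS with 0.5% NP-40 at 4°C, and centrifuged at 21,000xg for 90 min to give the soluble supernatant.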
C8orf76 (UniProt Q96K31): the log2 fold change is inactive: -0.068.
For C6orf89 isoform 2 (UniProt Q6UWU4), the log2 fold change was inactive: 0.025.
CALCOCO1 (UniProt Q9P1Z2): the log2 fold change was inactive: 0.091.
On the same count and under the same terms, the value for CALU isoform 4 (UniProt O43852) was inactive: -0.008; that for C1GALT1C1 (UniProt Q96EU7) was inactive: 0.018; that for C9orf40 (UniProt Q8IXQ3) was inactive: 0.016.
On to CAPRIN1 (UniProt Q14444), for which the log2 fold change is inactive: 0.104.
As to C11orf68 (UniProt Q9H3H3), the log2 fold change is inactive: -0.026.
Same read-out and setting: the value for CACTIN isoform 2 (UniProt Q8WUQ7) was inactive: -0.18; that for C18orf32 (UniProt Q8TCD1) was inactive: 0.004; that for C1GALT1 (UniProt Q9NS00) was inactive: -0.005.
For the target CARD19 isoform 2 (UniProt Q96LW7), the log2 fold change is inactive: 0.029.
For the target C17orf80 (UniProt Q9BSJ5), the log2 fold change was inactive: 0.162.
For CANX isoform 2 (UniProt P27824), the log2 fold change is inactive: 0.025.
C4BPA (UniProt P04003): the log2 fold change is inactive: -0.098.
For C12orf29 (UniProt Q8N999), the log2 fold change was inactive: 0.037.
For the target CAB39 (UniProt Q9Y376), the log2 fold change was inactive: -0.016.
For the target BTRC (UniProt Q9Y297), the log2 fold change was inactive: 0.098.
As for BUB1B isoform 3 (UniProt O60566), the log2 fold change was inactive: 0.111.
On to C12orf73 (UniProt Q69YU5), for which the log2 fold change is inactive: 0.018.
C9orf78 (UniProt Q9NZ63): the log2 fold change is inactive: -0.028.
As to C1orf52 (UniProt Q8N6N3), the log2 fold change is inactive: 0.105.
Turning to CAD (UniProt P27708), the log2 fold change is inactive: 0.003.
Consider CA13 (UniProt Q8N1Q1), for which the log2 fold change is inactive: 0.078.
Same read-out and setting: the value for CALB1 (UniProt P05937) was inactive: 0.006; that for C1D (UniProt Q13901) was inactive: 0.072; that for C16orf58 (UniProt Q96GQ5) was inactive: 0.032.
Turning to C9orf72 (UniProt Q96LT7), the log2 fold change is inactive: -0.067.
Turning to C19orf53 (UniProt Q9UNZ5), the log2 fold change is inactive: 0.123.
Turning to CAPZB isoform 2 (UniProt P47756), the log2 fold change is inactive: 0.017.
Consider C18orf25 isoform 2 (UniProt Q96B23), for which the log2 fold change was inactive: 0.033.
Take CARD8 isoform 5 (UniProt Q9Y2G2): the log2 fold change is inactive: 0.162.

Compound in a further assay: O=C1NC(=O)C(c2cnc3ccccn23)=C1c1cn2c3c(cc(F)cc13)CN(C(=O)N1CCCCC1)CC2
The description is as above. In a few lines: as §1
Take C8orf76 (UniProt Q96K31): the log2 fold change is inactive: -0.06.
Consider C6orf89 isoform 2 (UniProt Q6UWU4), for which the log2 fold change is inactive: -0.021.
For the target CALCOCO1 (UniProt Q9P1Z2), the log2 fold change was inactive: -0.006.
Consider CALU isoform 4 (UniProt O43852), for which the log2 fold change was inactive: -0.017.
The same measure, in the same setting: the value for C1GALT1C1 (UniProt Q96EU7) was inactive: -0.007.
On to C9orf40 (UniProt Q8IXQ3), for which the log2 fold change was inactive: -0.008.
For the target CAPRIN1 (UniProt Q14444), the log2 fold change is inactive: 0.184.
As to C11orf68 (UniProt Q9H3H3), the log2 fold change is inactive: -0.065.
On the same count and under the same terms, the value for CACTIN isoform 2 (UniProt Q8WUQ7) was inactive: -0.001.
For C18orf32 (UniProt Q8TCD1), the log2 fold change was inactive: -0.108.
Consider C1GALT1 (UniProt Q9NS00), for which the log2 fold change is inactive: -0.031.
In the case of CARD19 isoform 2 (UniProt Q96LW7), the log2 fold change was inactive: 0.108.
Consider C17orf80 (UniProt Q9BSJ5), for which the log2 fold change is inactive: -0.116.
CANX isoform 2 (UniProt P27824): the log2 fold change is inactive: -0.014.
On to C4BPA (UniProt P04003), for which the log2 fold change is inactive: 0.379.
With C12orf29 (UniProt Q8N999), the log2 fold change was inactive: -0.064.
On the same count and under the same terms, the result for CAB39 (UniProt Q9Y376) reads inactive: -0.056; that for BTRC (UniProt Q9Y297), inactive: -0.226.
As for BUB1B isoform 3 (UniProt O60566), the log2 fold change is inactive: 0.026.
Consider BTN2A1 (UniProt Q7KYR7), for which the log2 fold change is inactive: -0.017.
On the same count and under the same terms, the value for C12orf73 (UniProt Q69YU5) was inactive: -0.073; that for C9orf78 (UniProt Q9NZ63) was inactive: -0.006; that for C1orf52 (UniProt Q8N6N3) was inactive: -0.02.
In the case of CAD (UniProt P27708), the log2 fold change was inactive: 0.108.
For CA13 (UniProt Q8N1Q1), the log2 fold change was inactive: -0.052.
Take CALB1 (UniProt P05937): the log2 fold change is inactive: 0.016.
For C1D (UniProt Q13901), the log2 fold change is inactive: 0.003.
Same read-out and setting: the result for C16orf58 (UniProt Q96GQ5) reads inactive: -0.027; that for C9orf72 (UniProt Q96LT7), inactive: -0.011.
On to C19orf53 (UniProt Q9UNZ5), for which the log2 fold change was inactive: 0.214.
With CAPZB isoform 2 (UniProt P47756), the log2 fold change was inactive: -0.024.
Still for that read-out and setting: the value for C7 (UniProt P10643) was inactive: 0.146.
Take C18orf25 isoform 2 (UniProt Q96B23): the log2 fold change was inactive: 0.097.
For the target CARD8 isoform 5 (UniProt Q9Y2G2), the log2 fold change was inactive: -0.08.
